Values quoted from earlier work, collected in patent US20100278946A1, “HERBAL COMPOSITIONS COMPRISING PLANT MATERIAL OF ARTEMISIA HERBA-ALBA (ASSO) ASTERACEAE AND/OR EXTRACTS THEREOF” (priority 2007, published 2010).
At least one structure is not confirmed: it was looked up by name or label, or the drawing left a doubt.

Test system: mice
Details: intraperitoneal administration 15 min before alpha-thujone at 100 mg/kg

Structure (SMILES): CCC1(c2ccccc2)C(=O)NC(=O)NC1=O [phenobarbital]
- survival of mice given an otherwise lethal dose of alpha-thujone: almost all of the mice surviving
